Some of the results follow. The data scatter; read single values as rough.

Protein sequences, listed by entry. Tags and fused reporters are not part of them. Lines headed by an entry give the natural chain unless they say otherwise; changes in a name come on top. Residues count along the entry.
UniProt Q8TD30: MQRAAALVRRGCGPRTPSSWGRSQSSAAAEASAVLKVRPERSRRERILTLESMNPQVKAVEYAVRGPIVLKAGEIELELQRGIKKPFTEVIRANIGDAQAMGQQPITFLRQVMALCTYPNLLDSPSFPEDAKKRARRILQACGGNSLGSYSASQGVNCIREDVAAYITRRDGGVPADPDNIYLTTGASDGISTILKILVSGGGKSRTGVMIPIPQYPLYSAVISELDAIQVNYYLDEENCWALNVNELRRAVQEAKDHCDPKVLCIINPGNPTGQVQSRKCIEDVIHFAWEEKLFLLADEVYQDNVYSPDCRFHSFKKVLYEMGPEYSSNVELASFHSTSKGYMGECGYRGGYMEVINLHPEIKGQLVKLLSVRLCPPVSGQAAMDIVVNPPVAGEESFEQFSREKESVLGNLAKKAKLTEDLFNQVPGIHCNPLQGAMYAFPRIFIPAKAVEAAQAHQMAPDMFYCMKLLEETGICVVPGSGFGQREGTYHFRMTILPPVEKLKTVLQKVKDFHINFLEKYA
UniProt Q53GS7: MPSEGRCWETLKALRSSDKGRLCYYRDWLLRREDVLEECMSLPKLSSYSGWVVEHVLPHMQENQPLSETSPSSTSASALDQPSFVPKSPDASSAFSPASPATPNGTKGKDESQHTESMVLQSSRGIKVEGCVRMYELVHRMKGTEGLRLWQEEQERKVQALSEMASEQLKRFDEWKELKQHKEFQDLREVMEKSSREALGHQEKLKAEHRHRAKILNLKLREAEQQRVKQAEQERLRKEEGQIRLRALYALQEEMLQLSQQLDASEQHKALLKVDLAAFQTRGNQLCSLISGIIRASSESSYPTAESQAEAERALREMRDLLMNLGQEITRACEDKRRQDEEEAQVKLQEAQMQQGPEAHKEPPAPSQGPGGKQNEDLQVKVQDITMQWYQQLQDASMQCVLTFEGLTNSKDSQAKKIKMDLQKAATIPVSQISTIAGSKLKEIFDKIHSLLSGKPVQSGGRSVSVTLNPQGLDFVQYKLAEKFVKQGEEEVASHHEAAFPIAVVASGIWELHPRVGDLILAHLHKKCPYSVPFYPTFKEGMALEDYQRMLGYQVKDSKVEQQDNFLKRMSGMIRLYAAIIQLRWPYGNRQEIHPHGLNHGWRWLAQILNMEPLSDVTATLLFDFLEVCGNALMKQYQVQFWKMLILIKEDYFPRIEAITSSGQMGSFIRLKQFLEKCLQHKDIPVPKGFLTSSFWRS
UniProt Q14789: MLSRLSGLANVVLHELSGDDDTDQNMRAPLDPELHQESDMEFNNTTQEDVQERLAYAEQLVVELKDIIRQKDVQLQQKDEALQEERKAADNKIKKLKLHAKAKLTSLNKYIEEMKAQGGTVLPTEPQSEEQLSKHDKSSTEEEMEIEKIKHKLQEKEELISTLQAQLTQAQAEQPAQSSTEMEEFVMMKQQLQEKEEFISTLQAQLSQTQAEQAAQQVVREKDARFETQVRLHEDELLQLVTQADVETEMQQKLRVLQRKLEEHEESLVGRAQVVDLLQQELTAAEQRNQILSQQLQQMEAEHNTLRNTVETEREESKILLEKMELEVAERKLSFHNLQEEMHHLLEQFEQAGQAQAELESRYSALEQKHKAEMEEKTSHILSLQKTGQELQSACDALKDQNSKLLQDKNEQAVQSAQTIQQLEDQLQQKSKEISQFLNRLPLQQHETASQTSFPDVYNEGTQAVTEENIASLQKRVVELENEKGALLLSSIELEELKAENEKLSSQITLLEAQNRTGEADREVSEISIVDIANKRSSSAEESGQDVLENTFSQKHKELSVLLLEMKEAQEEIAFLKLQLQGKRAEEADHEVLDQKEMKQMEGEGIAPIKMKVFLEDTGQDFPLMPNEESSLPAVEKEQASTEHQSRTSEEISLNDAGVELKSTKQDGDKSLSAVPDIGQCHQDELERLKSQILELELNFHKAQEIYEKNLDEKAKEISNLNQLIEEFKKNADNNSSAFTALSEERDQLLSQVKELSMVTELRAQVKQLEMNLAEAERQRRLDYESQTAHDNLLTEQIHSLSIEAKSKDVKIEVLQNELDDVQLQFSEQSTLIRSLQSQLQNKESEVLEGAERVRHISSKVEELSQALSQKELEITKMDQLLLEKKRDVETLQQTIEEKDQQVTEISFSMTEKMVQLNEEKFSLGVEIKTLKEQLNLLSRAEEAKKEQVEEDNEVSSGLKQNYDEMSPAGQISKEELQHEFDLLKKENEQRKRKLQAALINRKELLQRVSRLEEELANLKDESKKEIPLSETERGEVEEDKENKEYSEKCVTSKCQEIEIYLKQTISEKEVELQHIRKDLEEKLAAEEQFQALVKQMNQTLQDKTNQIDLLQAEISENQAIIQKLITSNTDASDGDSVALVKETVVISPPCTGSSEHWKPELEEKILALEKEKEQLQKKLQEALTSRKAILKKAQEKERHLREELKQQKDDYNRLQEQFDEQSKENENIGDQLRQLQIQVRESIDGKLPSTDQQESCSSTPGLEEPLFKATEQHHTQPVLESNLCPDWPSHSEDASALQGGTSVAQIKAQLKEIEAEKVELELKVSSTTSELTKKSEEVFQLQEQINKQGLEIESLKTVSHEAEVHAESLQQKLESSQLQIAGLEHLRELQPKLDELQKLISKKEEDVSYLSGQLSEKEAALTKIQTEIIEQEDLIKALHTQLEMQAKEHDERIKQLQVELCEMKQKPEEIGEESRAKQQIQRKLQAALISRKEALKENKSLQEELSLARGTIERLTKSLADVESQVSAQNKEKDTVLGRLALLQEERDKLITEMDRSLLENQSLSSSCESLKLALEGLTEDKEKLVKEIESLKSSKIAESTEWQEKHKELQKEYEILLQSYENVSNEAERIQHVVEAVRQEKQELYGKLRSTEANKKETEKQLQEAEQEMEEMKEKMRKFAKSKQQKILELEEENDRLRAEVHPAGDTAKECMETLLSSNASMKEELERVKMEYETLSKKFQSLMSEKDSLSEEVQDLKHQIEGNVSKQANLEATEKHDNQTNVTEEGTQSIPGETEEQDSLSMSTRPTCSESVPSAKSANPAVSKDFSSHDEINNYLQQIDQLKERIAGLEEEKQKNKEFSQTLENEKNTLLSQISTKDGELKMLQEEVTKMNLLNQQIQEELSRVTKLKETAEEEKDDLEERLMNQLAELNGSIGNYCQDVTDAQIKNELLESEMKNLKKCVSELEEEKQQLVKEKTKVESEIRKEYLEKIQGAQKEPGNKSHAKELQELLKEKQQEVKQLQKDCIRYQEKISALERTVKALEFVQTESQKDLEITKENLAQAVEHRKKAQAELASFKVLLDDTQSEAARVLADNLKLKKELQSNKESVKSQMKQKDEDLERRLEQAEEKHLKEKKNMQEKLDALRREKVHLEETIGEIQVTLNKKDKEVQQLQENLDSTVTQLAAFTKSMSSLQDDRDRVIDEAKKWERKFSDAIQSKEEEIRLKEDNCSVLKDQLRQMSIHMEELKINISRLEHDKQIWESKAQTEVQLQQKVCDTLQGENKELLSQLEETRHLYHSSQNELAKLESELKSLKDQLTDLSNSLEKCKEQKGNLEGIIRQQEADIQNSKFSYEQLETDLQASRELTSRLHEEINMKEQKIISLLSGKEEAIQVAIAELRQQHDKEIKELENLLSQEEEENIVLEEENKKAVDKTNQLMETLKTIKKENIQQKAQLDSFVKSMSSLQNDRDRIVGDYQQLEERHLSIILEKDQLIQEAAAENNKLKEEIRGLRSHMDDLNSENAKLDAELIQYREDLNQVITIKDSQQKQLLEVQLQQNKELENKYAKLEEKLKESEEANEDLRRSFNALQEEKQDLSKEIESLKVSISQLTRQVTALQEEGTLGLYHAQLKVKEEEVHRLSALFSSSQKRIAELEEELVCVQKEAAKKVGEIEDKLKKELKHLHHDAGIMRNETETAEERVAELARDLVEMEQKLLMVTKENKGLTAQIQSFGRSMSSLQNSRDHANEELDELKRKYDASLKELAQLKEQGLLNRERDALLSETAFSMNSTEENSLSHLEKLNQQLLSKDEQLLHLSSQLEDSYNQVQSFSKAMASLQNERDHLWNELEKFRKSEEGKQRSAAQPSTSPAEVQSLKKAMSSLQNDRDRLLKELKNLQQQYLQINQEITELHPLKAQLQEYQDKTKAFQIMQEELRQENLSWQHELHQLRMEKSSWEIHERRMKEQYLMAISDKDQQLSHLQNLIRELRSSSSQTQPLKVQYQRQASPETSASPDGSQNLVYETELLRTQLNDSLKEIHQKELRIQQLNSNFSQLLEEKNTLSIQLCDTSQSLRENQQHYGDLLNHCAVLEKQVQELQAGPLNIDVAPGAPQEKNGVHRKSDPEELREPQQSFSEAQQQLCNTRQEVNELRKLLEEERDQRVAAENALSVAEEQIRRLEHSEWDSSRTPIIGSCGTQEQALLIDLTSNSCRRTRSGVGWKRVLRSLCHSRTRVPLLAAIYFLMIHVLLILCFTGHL
UniProt Q9P2T1: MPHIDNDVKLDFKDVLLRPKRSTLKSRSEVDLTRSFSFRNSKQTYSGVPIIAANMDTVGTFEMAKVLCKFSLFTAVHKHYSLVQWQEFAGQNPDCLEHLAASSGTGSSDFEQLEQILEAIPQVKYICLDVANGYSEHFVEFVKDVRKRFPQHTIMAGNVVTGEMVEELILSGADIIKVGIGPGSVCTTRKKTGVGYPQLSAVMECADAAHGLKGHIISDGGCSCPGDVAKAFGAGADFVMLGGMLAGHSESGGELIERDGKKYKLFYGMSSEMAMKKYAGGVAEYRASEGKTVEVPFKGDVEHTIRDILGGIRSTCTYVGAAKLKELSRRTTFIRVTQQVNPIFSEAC
UniProt Q96EK6: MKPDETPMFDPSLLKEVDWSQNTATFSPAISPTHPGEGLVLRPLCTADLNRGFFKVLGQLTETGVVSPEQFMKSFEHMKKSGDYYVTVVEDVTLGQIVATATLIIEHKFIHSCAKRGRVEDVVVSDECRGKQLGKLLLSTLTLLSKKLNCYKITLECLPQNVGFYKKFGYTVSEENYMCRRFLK
UniProt Q86YR5, 515-536: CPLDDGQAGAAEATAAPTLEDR
UniProt Q92990, 533-556: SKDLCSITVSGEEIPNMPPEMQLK
UniProt Q9BRR8: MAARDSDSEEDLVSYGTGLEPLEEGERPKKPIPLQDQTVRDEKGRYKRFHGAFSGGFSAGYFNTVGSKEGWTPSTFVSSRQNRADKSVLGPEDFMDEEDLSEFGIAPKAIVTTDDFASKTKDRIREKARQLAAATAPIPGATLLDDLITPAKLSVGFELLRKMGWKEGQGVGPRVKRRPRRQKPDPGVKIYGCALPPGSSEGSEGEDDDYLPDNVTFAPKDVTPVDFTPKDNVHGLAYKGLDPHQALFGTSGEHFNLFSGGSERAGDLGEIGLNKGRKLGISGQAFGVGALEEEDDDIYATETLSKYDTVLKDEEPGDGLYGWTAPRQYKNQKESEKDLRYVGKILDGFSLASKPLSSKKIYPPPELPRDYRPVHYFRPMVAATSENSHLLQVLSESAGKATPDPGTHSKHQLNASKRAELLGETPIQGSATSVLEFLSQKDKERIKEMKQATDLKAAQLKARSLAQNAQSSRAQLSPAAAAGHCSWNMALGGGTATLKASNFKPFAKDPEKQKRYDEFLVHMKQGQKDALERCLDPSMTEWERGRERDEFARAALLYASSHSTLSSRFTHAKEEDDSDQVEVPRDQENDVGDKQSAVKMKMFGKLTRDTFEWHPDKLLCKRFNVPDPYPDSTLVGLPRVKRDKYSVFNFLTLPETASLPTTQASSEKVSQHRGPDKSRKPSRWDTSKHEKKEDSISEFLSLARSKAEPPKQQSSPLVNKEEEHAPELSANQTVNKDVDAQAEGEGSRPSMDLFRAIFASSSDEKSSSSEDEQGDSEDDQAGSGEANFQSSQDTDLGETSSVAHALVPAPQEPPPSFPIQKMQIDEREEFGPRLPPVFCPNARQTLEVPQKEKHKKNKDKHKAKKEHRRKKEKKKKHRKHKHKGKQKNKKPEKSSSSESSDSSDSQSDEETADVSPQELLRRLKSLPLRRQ
UniProt Q9BVM4: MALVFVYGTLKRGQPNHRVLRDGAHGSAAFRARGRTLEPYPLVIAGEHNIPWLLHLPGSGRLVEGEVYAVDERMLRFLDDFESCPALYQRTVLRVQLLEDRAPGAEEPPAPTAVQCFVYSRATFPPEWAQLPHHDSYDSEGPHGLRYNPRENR
UniProt Q08379, 189-208: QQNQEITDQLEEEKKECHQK

Compound in assay [1]: ClCC(=O)N[C@@H]1CCCc2ccccc12
Put plainly: log2 mean competition ratio of IA-DTB cysteine labelling (DMSO/compound) (log2 ratio); higher = stronger cysteine engagement by compound. The conditions noted are these: treatment time: 4 h, cell line lysate: HEK293T. Here is the method: (§1)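 IA-DTB competitive cysteine chemoproteomics in HEK293T RIPA lysate. Lysates were treated with compound 29 or 30 at 50 or 200 µM for 4 h, then IA-DTB (500 µM, 1 h), trypsin-digested, NeutrAvidin-enriched and analysed by diaPASEF. Competition ratio = intensity DMSO / intensity compound (n=4 treated, n=64 DMSO); binding: mean log2 CR ≥ 1 and p ≤ 0.05 plus QC filters. Target is the cysteine site.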

Compound in assay [2]: ClCC(=O)N[C@H]1CCCc2ccccc12
The description is as above. The conditions noted are these: treatment time: 4 h, cell line lysate: HEK293T. Here is the method:
as §1

As to GNL3L C89 (UniProt Q9NVN8), the “log2 mean competition ratio” value in assay [1] (50 µM) is 0.0494; in assay [1] (200 µM), 0.103; in assay [2] (50 µM), -0.18; in assay [2] (200 µM), 0.026.

For GLG1 C1071 (UniProt Q92896), the “log2 mean competition ratio” value in assay [1] (50 µM) is 0.0677; in assay [1] (200 µM), 0.0429; in assay [2] (50 µM), 0.0371; in assay [2] (200 µM), -0.0181.

As to GPATCH8 C639 (UniProt Q9UKJ3), the “log2 mean competition ratio” value in assay [1] (50 µM) was 0.0363; in assay [1] (200 µM) it was -0.0372; in assay [2] (50 µM) it was -0.208; in assay [2] (200 µM) it was 0.0268.

As to GIGYF1 C261 (UniProt O75420), the “log2 mean competition ratio” value in assay [1] (50 µM) is -0.0469; in assay [1] (200 µM), 0.0481; in assay [2] (50 µM), -0.0448; in assay [2] (200 µM), 0.17.

As for GPT2 C477 (UniProt Q8TD30), the “log2 mean competition ratio” value is -0.201 in assay [1] (50 µM), 0.0842 in assay [1] (200 µM), -0.0723 in assay [2] (50 µM) and 0.00135 in assay [2] (200 µM).

Take GLE1 C528 (UniProt Q53GS7): the “log2 mean competition ratio” value in assay [1] (50 µM) was found to be 0.452; in assay [1] (200 µM), 0.674; in assay [2] (50 µM) it was 0.141; in assay [2] (200 µM), 0.761.

Turning to GOLGB1 C1713 (UniProt Q14789), the “log2 mean competition ratio” value in assay [1] (200 µM) was -0.256; in assay [2] (50 µM) it was -0.095; in assay [2] (200 µM), -0.39.

For the target GMPR2 C316 (UniProt Q9P2T1), the “log2 mean competition ratio” value in assay [1] (50 µM) was 0.414; in assay [1] (200 µM), -0.0939; in assay [2] (50 µM), -0.0176; in assay [2] (200 µM), -0.148.

For the target GNPNAT1 C113 (UniProt Q96EK6), the “log2 mean competition ratio” value in assay [1] (50 µM) is 0.196; in assay [1] (200 µM), -0.494; in assay [2] (50 µM) it was 0.0206; in assay [2] (200 µM), -0.531.

Turning to GPSM1 C515 (UniProt Q86YR5), the “log2 mean competition ratio” value in assay [1] (50 µM) was -0.233; in assay [1] (200 µM), -0.247; in assay [2] (50 µM), 0.0699; in assay [2] (200 µM), -0.1.

Regarding GLMN C537 (UniProt Q92990), the “log2 mean competition ratio” value is 0.18 in assay [1] (50 µM), 0.382 in assay [1] (200 µM), 0.602 in assay [2] (50 µM) and -0.141 in assay [2] (200 µM).

GRN C178 (UniProt P28799): the “log2 mean competition ratio” value is 0.174 in assay [1] (50 µM), 0.122 in assay [1] (200 µM), -0.157 in assay [2] (50 µM) and -0.0982 in assay [2] (200 µM).

As for GRK3 C103 (UniProt P35626), the “log2 mean competition ratio” value in assay [1] (50 µM) is -0.191; in assay [1] (200 µM) it was 0.343; in assay [2] (50 µM), -0.434; in assay [2] (200 µM) it was 0.269.

Turning to GOLGA4 C1729 (UniProt Q13439), the “log2 mean competition ratio” value in assay [1] (50 µM) was -0.317; in assay [1] (200 µM) it was -0.119; in assay [2] (50 µM), 0.244; in assay [2] (200 µM) it was -0.23.

Take GPRIN1 C658 (UniProt Q7Z2K8): the “log2 mean competition ratio” value in assay [1] (50 µM) is -0.00376; in assay [1] (200 µM) it was -0.122; in assay [2] (50 µM), 0.161; in assay [2] (200 µM) it was 0.00946.

For GPATCH1 C534 (UniProt Q9BRR8), the “log2 mean competition ratio” value was -0.489 in assay [1] (200 µM), 0.0139 in assay [2] (50 µM) and 0.3 in assay [2] (200 µM).

As for GBF1 C1588 (UniProt Q92538), the “log2 mean competition ratio” value is 0.0841 in assay [1] (50 µM), -0.292 in assay [1] (200 µM), 0.0946 in assay [2] (50 µM) and -0.166 in assay [2] (200 µM).

For the target GMPS C137 (UniProt P49915), the “log2 mean competition ratio” value in assay [1] (50 µM) was -0.307; in assay [1] (200 µM) it was -0.387; in assay [2] (50 µM), -0.287; in assay [2] (200 µM) it was 0.491.

Regarding GNG4 C28, the “log2 mean competition ratio” value in assay [1] (50 µM) was -0.0384; in assay [1] (200 µM), 0.0991; in assay [2] (50 µM) it was -0.0623; in assay [2] (200 µM) it was 0.329.

As for GMPS C523 (UniProt P49915), the “log2 mean competition ratio” value in assay [1] (50 µM) is -0.198; in assay [1] (200 µM) it was 0.151; in assay [2] (50 µM) it was -0.0725; in assay [2] (200 µM), 0.273.

For GGACT C84 (UniProt Q9BVM4), the “log2 mean competition ratio” value in assay [1] (50 µM) was 0.0981; in assay [1] (200 µM), 0.0624; in assay [2] (50 µM) it was -0.0665; in assay [2] (200 µM), 0.136.

Turning to GOLGA2 C205 (UniProt Q08379), the “log2 mean competition ratio” value was -0.245 in assay [1] (50 µM), 0.0723 in assay [1] (200 µM), -0.028 in assay [2] (50 µM) and -0.0759 in assay [2] (200 µM).

The values are drawn from the supplement of paper PMC11732987, “Enantioselective OTUD7B fragment discovery through chemoproteomics screening and high-throughput optimisation” (Communications Chemistry, 2025).
